Assay: MgCl2 and Hy-D dosed into the rumen of fistulated cattle: urine pH, urine and blood plasma minerals
Type: in vivo
Conditions: mature rumen fistulated cattle, treatment dosed daily into rumen over 2 weeks
Experimental: Four mature rumen fistulated cattle (approximately 600 kg […] in individual pens and offered 12 kg/day of good quality lucerne chaff throughout the experiment. After a 2 week adaptation to this diet the following treatments were applied daily over 2 weeks to each animal in a Latin Square Design: 1. no supplement (control) 2. […] 3. […]® 1.25% (5 mg 25-hydroxy vitamin D3) MgCl2 plus […]® 1.25 % Each treatment was dosed into the rumen through a cannula each morning during the 2 week experimental period. […] Urine pH was measured at time of collection; blood plasma was decanted after centrifugation and analyzed for calcium, magnesium, potassium, sodium and phosphorus by inductively coupled plasma atomic emission spectrophotometry. The results were analysed as a latin square design making comparisons between treatments after removal of any animal or period effects. The lucerne […] assayed for macro cations together with chloride and sulphur concentrations.

Q: For [Cl-].[Cl-].[Mg+2] [Mg, magnesium chloride], which Liveweight (12 kg/day lucerne chaff) is on record?
A: 602 kg

Q: And the “Feed Intake” value?
A: 11.8 kg/day
